This list holds what a sample rich in hits left over. Records with an inconclusive call do not appear. The source made the active and inactive calls. Calls follow the shape of the dose curve; as a rule, active = well fitted inhibition curve with a large enough effect; inconclusive = small, poorly fitted or top-dose-only effect; inactive = flat fitted curve, though single readings scatter.
How the values were obtained:
[1] = biological target: Calcium and integrin-binding protein 1 (Homo sapiens) (UniProt Q99828); experiment: Primary qHTS for Identification of Calcium Integrin Binding Protein 1 (CIB1) Competitor (AID 1508620); details: CIB1-GST / FITC-alphaIIb peptide fluorescence polarization; at 114 µM (top of the series);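 also: GST tagged CIB1 binding a fluorescein labelled alphaIIb integrin peptide tracer; top concentration of the series differs between compounds; % is scaled to controls: 0 for no effect and ±100 for the full control effect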
Procedure, shortened: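 Fluorescence polarization competition: GST-tagged CIB1 (1 uM final) preincubated with compound 15 min at room temperature, then FITC-labelled alphaIIb peptide (100 nM final) added. After 15 min at room temperature, polarization read at Ex 480/Em 540.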

Protein sequences, listed by entry. Tags and fused reporters are not part of them. Lines headed by an entry give the natural chain unless they say otherwise; changes in a name come on top.
UniProt Q99828: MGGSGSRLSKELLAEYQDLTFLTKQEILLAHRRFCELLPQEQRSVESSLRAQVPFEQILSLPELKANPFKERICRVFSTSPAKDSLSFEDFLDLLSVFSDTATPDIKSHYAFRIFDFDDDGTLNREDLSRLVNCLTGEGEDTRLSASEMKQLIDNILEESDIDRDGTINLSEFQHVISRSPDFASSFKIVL
UniProt P07203, whole entry, looked up: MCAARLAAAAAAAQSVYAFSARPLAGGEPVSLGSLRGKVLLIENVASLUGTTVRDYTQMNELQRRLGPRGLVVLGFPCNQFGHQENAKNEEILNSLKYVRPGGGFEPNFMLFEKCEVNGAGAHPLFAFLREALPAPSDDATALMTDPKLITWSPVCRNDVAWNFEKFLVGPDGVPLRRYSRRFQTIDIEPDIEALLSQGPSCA
UniProt P36969, whole entry, looked up: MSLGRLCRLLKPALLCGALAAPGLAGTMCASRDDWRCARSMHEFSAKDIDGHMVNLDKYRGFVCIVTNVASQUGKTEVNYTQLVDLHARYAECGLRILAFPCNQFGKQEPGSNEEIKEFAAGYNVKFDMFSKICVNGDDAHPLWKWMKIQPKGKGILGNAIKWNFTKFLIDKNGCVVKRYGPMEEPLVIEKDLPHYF

[2] = biological target: Glutathione peroxidase 1 (Homo sapiens) (UniProt P07203); experiment: Primary qHTS Assay for Inhibitors of Recombinant Selenoprotein Glutathione Peroxidase 1 (GPX1) (AID 1845191); details: recombinant GPX1, GR-coupled NADPH fluorescence, 15 min; at 48.8 µM (top of the series); also: % is scaled to controls: 0 for no effect and ±100 for the full control effect; nearly all actives have a fitted effect of over 65% in size
Procedure, shortened: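 GR-coupled readout: NADPH consumption tracked by fluorescence, ex 340/em 450 nm, at t=0 and after 15 min at RT. Final mix 10 nM GPX1, 1 mM GSH, 0.5 mM CHP, 0.5 mM NADPH, 100 nM GR, 0.01% BSA, following 30 min enzyme–compound preincubation.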

[3] = biological target: Phospholipid hydroperoxide glutathione peroxidase GPX4 (Homo sapiens) (UniProt P36969); experiment: Primary qHTS Assay for Inhibitors of Recombinant Selenoprotein Glutathione Peroxidase 4 (GPX4) (AID 1845192); details: recombinant GPX4, GR-coupled NADPH fluorescence, 15 min; at 50 µM (top of the series); also: % is scaled to controls: 0 for no effect and ±100 for the full control effect; nearly all actives have a fitted effect of over 65% in size
Procedure, shortened: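 Steps: GPX4 plus compound, 30 min RT; add GR/GSH/NADPH master mix; start with cumene hydroperoxide; read 340/450 nm fluorescence at 0 and 15 min. Finals were 200 nM GPX4, 1 mM GSH, 0.5 mM CHP, 0.5 mM NADPH, 100 nM GR.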

[4] = qHTS profiling for inhibitors of Plasmodium falciparum proliferation (AID 504749);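 also: 0% = DMSO vehicle and full inhibition = artemisinin control; nearly all actives have a fitted effect of over 60% in size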; details: P. falciparum in erythrocytes, SYBR Green DNA, 72 h, at 28.7 µM (top of the series)
Procedure, shortened: (§1)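 SYBR Green fluorescence (ex 485 nm, em 535 nm) reports parasite DNA after 72 h compound exposure of infected red cells at 0.3% parasitemia, 2.5% hematocrit; signal normalized to 0.29 uM artemisinin and vehicle wells.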

3D7 = experiment: as above; details: P. falciparum in erythrocytes, SYBR Green DNA, 72 h; at 28.7 µM (top of the series)
Procedure, shortened: as §1

7G8 = experiment: as above; details: P. falciparum in erythrocytes, SYBR Green DNA, 72 h; at 28.7 µM (top of the series)
Procedure, shortened: as §1

AA1029 = experiment: as above; details: P. falciparum in erythrocytes, SYBR Green DNA, 72 h; at 28.7 µM (top of the series)
Procedure, shortened: as §1

AS120 = experiment: as above; details: P. falciparum in erythrocytes, SYBR Green DNA, 72 h; at 28.7 µM (top of the series)
Procedure, shortened: as §1

ATS189 = experiment: as above; details: P. falciparum in erythrocytes, SYBR Green DNA, 72 h; at 28.7 µM (top of the series)
Procedure, shortened: as §1

ATS95 = experiment: as above; details: P. falciparum in erythrocytes, SYBR Green DNA, 72 h; at 28.7 µM (top of the series)
Procedure, shortened: as §1

CC(C)(C)c1ccc(O)cc1
inactive: activity change, negative = inhibition [1] 2.09% | activity, negative = inhibition [2] -14.5% | activity change, negative = inhibition [3] -12.6% | activity, negative = inhibition ([4]; parasite line A) 2.69% | activity, negative = inhibition ([4]; parasite line B) 20.7% | activity, negative = inhibition (3D7) 9.58% | activity, negative = inhibition (7G8) -1.23% | activity, negative = inhibition (AA1029) -5.4% | activity, negative = inhibition (AS120) -3.49% | activity, negative = inhibition (ATS189) 1.2% | activity, negative = inhibition (ATS95) -2.33%

Source: PubChem BioAssay (NCATS)
